The text below walks through data of the supplement of paper PMC12819154, “High-throughput peptide-centric local stability assay extends protein–ligand identification to membrane proteins, tissues and bacteria” (Nature Structural & Molecular Biology, 2025).

The chains behind the UniProt entries cited, without tags or fusion partners. Where a name states a change or a piece, a line headed by the entry shows the natural chain unless it says otherwise.
UniProt P61204: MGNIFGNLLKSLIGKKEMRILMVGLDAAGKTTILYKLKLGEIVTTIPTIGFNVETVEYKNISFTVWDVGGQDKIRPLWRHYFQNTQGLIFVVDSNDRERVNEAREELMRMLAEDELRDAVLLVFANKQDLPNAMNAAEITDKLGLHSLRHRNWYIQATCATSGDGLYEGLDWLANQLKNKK
UniProt P78347: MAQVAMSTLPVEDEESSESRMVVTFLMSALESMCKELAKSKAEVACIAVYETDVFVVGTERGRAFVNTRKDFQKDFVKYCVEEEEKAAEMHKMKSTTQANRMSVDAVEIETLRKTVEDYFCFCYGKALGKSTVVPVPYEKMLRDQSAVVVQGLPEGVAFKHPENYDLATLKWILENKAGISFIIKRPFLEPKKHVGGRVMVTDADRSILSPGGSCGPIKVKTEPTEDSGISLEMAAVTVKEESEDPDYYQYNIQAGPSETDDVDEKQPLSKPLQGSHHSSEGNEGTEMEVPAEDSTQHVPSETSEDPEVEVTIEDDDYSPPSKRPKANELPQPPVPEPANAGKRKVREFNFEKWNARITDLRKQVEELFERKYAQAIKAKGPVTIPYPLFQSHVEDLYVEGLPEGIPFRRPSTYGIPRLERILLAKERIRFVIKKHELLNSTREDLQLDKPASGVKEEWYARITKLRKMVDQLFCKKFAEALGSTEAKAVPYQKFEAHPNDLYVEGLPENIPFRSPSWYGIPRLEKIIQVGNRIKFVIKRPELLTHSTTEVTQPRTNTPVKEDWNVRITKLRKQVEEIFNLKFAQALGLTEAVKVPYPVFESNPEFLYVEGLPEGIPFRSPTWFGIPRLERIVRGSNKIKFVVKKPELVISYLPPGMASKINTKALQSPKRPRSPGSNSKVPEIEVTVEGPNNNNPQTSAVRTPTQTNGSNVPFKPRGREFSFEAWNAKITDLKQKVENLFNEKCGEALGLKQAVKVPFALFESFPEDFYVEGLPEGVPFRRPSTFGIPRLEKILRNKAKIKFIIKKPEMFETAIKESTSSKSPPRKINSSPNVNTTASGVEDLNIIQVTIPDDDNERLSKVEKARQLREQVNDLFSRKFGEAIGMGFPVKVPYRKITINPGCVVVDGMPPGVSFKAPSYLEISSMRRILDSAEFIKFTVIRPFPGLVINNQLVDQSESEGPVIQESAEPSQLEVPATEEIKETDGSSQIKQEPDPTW
UniProt P68543: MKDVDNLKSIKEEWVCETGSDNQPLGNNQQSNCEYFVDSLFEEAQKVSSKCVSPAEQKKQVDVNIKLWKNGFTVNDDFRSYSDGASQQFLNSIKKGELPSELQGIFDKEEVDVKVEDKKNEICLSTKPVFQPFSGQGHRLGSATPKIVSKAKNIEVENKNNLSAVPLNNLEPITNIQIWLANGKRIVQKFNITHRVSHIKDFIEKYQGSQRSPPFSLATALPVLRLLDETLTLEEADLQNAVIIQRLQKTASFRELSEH
UniProt P78330: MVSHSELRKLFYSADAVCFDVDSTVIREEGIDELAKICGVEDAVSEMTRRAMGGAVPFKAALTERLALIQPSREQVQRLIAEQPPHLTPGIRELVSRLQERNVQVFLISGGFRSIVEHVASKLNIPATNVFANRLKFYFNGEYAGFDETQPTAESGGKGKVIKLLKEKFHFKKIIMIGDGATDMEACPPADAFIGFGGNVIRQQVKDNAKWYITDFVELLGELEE
UniProt P56211: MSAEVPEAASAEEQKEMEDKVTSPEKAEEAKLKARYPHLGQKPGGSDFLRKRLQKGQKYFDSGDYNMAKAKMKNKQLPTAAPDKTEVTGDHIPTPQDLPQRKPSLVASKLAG
UniProt P55201: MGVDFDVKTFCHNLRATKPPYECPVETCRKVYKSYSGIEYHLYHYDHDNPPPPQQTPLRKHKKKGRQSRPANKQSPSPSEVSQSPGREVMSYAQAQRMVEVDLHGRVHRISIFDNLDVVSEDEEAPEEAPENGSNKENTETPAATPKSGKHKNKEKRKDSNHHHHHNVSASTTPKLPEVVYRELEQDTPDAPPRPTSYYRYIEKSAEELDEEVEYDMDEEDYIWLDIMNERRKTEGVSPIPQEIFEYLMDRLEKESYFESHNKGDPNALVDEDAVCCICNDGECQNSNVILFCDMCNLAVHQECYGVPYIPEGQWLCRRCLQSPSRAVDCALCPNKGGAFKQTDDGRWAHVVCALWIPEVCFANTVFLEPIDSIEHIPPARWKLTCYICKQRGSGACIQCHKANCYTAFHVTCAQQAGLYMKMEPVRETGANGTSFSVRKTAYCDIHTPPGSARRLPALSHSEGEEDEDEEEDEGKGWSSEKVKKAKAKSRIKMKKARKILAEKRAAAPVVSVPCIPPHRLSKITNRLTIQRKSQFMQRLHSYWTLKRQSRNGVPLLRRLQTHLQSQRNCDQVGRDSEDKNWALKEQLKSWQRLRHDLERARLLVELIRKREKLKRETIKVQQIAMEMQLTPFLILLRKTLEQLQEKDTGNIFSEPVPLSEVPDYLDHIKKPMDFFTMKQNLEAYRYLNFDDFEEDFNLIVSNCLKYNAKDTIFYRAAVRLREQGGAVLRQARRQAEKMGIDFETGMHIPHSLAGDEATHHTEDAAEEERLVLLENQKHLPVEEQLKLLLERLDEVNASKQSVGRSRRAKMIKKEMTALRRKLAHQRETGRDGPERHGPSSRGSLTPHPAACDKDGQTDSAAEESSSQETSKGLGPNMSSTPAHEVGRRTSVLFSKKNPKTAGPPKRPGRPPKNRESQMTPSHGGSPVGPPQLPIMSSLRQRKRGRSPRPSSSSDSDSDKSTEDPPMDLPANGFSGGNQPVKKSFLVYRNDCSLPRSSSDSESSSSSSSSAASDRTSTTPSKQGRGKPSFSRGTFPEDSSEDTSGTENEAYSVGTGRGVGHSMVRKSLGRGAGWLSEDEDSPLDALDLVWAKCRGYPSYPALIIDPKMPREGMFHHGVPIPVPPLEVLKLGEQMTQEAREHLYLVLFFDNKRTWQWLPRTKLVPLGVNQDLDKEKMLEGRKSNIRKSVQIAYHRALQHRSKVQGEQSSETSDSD
UniProt P78356: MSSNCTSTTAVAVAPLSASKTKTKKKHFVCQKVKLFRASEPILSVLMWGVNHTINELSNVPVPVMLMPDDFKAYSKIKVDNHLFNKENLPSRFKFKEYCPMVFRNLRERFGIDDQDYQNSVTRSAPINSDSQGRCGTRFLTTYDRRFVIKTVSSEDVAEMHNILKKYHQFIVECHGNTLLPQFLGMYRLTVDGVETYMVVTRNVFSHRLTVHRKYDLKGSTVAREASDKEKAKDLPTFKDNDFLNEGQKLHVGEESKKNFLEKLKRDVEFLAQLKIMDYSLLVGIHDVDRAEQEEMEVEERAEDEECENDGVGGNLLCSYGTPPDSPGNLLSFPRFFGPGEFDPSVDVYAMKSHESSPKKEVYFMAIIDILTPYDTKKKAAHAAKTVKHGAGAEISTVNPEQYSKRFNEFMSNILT
UniProt P61077: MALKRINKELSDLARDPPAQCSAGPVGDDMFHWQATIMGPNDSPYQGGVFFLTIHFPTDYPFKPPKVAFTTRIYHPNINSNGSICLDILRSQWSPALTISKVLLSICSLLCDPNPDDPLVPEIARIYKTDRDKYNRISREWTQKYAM

The other results are listed elsewhere or left out. Most values lie at the level of the controls, where differences are scatter.

Compound in the assay: Cc1nc(Nc2ncc(C(=O)Nc3c(C)cccc3Cl)s2)cc(N2CCN(CCO)CC2)n1 [dasatinib]
Briefly: log2 fold change of tryptic peptide abundance, ligand vs vehicle (limited proteolysis) (log2 ratio); higher = more trypsin-susceptible (destabilized). The conditions noted are these: ligand concentration: 5 uM; sample: K562 cleared lysate.
Regarding “ARF3 (peptide sequence: NISFTVWDVGGQDKIRPLWR, peptide start residue: 60) (UniProt P61204)”, the log2 fold change was determined as 0.23.

Consider “GTF2I (peptide sequence: EDLQLDKPASGVK, peptide start residue: 444) (UniProt P78347)”, for which the log2 fold change amounted to 0.192. With “UniProt P63244 (peptide sequence: LWNTLGVCK, peptide start residue: 131)”, the log2 fold change came out at 0.103. To “UBXN2A (peptide sequence: KNEICLSTKPVFQPFSGQGHR, peptide start residue: 119) (UniProt P68543)” belongs 0.239. Regarding “MRPS6 (peptide sequence: TIEALMDR, peptide start residue: 25) (UniProt P82932)”, the log2 fold change worked out at 0.0533. To “POLR2F (peptide sequence: RITTPYMTK, peptide start residue: 51) (UniProt P61218)” belongs 0.415; to “PSPH (peptide sequence: MVSHSELRK, peptide start residue: 1) (UniProt P78330)”, 1.48. To “ARPP19 (peptide sequence: YPHLGQKPGGSDFLRK, peptide start residue: 36) (UniProt P56211)” belongs -0.0694. Consider “UniProt P55201 (peptide sequence: GLGPNMSSTPAHEVGRR, peptide start residue: 873)”, for which the log2 fold change was determined as 0.446. For the target “UniProt P78356 (peptide sequence: SAPINSDSQGR, peptide start residue: 124)”, the log2 fold change was -0.241.

Consider “UniProt P61077 (peptide sequence: TDRDKYNR, peptide start residue: 129)”, for which the log2 fold change was determined as 0.322.
